# This is one part of the list. Repeats are few or missing, and single values can be far off.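 Cells were imaged in 1,536-well plates, and nuclei stained with an antibody against cleaved PARP were counted against all DNA-stained nuclei to give the apoptosis fraction. Screening doses were chosen to leave most cells alive, and resting and induced cleaved-PARP levels differ strongly between cell lines.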
# Key:
# Test in all cases: cleaved PARP positive nuclei fraction relative to DMSO control; melanoma cells; higher = more apoptosis
# Conditions in all cases: library dose: low library concentration; 72 h
# 501Mel = test system: 501Mel
# A101D = test system: A101D
# A2058 = test system: A2058
# A375 = test system: A375
# C32 = test system: C32
# CBRC008 = test system: CBRC008 (line from a melanoma biopsy)
# CBRC014 = test system: CBRC014 (line from a melanoma biopsy)
# CBRC016 = test system: CBRC016 (line from a melanoma biopsy)
# CBRC017 = test system: CBRC017 (line from a melanoma biopsy)
smiles,measurement,setting,value
"C[C@]12O[C@H](C[C@]1(O)CO)n1c3ccccc3c3c4c(c5c6ccccc6n2c5c31)CNC4=O [Lestaurtinib] + CCN(CC)CCNC(=O)c1c(C)[nH]c(/C=C2\C(=O)Nc3ccc(F)cc32)c1C [sunitinib] (first compound 0.004 µM, partner dose 0.4 µM)",cleaved PARP positive nuclei fraction,501Mel,357%
same,cleaved PARP positive nuclei fraction,A101D,108%
same,cleaved PARP positive nuclei fraction,A2058,61.1%
same,cleaved PARP positive nuclei fraction,A375,375%
same,cleaved PARP positive nuclei fraction,C32,98%
same,cleaved PARP positive nuclei fraction,CBRC008,72.4%
same,cleaved PARP positive nuclei fraction,CBRC014,90.4%
same,cleaved PARP positive nuclei fraction,CBRC016,125%
same,cleaved PARP positive nuclei fraction,CBRC017,110%
"CCCCCCCCc1ccc(CCC(N)(CO)CO)cc1 [fingolimod] + C[As](C)SC[C@H](NC(=O)CC[C@H](N)C(=O)O)C(=O)NCC(=O)O [Darinaparsin] (first compound 2 µM, partner dose 0.4 µM)",cleaved PARP positive nuclei fraction,501Mel,203%
same,cleaved PARP positive nuclei fraction,A101D,102%
same,cleaved PARP positive nuclei fraction,A2058,155%
same,cleaved PARP positive nuclei fraction,A375,141%
same,cleaved PARP positive nuclei fraction,C32,70.5%
same,cleaved PARP positive nuclei fraction,CBRC008,51.5%
same,cleaved PARP positive nuclei fraction,CBRC014,104%
same,cleaved PARP positive nuclei fraction,CBRC016,99%
same,cleaved PARP positive nuclei fraction,CBRC017,237%
"Cn1cc(C2=C(c3cn(C4CCN(Cc5ccccn5)CC4)c4ccccc34)C(=O)NC2=O)c2ccccc21 [Enzastaurin] + C=CCNC1=C2C[C@@H](C)C[C@H](OC)[C@H](O)[C@@H](C)/C=C(\C)[C@H](OC(N)=O)[C@@H](OC)/C=C\C=C(/C)C(=O)NC(=CC1=O)C2=O [Tanespimycin] (first compound 0.8 µM, partner dose 0.002 µM)",cleaved PARP positive nuclei fraction,501Mel,104%
same,cleaved PARP positive nuclei fraction,A101D,92.4%
same,cleaved PARP positive nuclei fraction,A2058,206%
same,cleaved PARP positive nuclei fraction,A375,163%
same,cleaved PARP positive nuclei fraction,C32,68.8%
same,cleaved PARP positive nuclei fraction,CBRC008,213%
same,cleaved PARP positive nuclei fraction,CBRC014,139%
same,cleaved PARP positive nuclei fraction,CBRC016,182%
same,cleaved PARP positive nuclei fraction,CBRC017,119%
"C[As](C)SC[C@H](NC(=O)CC[C@H](N)C(=O)O)C(=O)NCC(=O)O [Darinaparsin] + COCC[n+]1c2c(n(Cc3cnccn3)c1C)C(=O)c1ccccc1C2=O [YM155] (first compound 0.4 µM, partner dose 0.0004 µM)",cleaved PARP positive nuclei fraction,501Mel,70.8%
same,cleaved PARP positive nuclei fraction,A101D,51.6%
same,cleaved PARP positive nuclei fraction,A2058,92%
same,cleaved PARP positive nuclei fraction,A375,210%
same,cleaved PARP positive nuclei fraction,C32,79.1%
same,cleaved PARP positive nuclei fraction,CBRC008,299%
same,cleaved PARP positive nuclei fraction,CBRC014,98.6%
same,cleaved PARP positive nuclei fraction,CBRC016,33.6%
same,cleaved PARP positive nuclei fraction,CBRC017,78.9%
"Cn1cc(C2=C(c3cn(C4CCN(Cc5ccccn5)CC4)c4ccccc34)C(=O)NC2=O)c2ccccc21 [Enzastaurin] + Nc1nc(F)nc2c1ncn2[C@@H]1O[C@H](CO)[C@@H](O)[C@@H]1O [fludarabine] (first compound 0.8 µM, partner dose 0.2 µM)",cleaved PARP positive nuclei fraction,501Mel,12700%
same,cleaved PARP positive nuclei fraction,A101D,126%
same,cleaved PARP positive nuclei fraction,A2058,109%
same,cleaved PARP positive nuclei fraction,A375,3260%
same,cleaved PARP positive nuclei fraction,C32,73.4%
same,cleaved PARP positive nuclei fraction,CBRC008,27.7%
same,cleaved PARP positive nuclei fraction,CBRC014,107%
same,cleaved PARP positive nuclei fraction,CBRC016,86%
same,cleaved PARP positive nuclei fraction,CBRC017,99.8%
"COc1cc([C@@H]2c3cc4c(cc3[C@@H](O[C@@H]3O[C@@H]5CO[C@@H](C)O[C@H]5[C@H](O)[C@H]3O)[C@H]3COC(=O)[C@H]23)OCO4)cc(OC)c1O [etoposide] + C[C@]12O[C@H](C[C@]1(O)CO)n1c3ccccc3c3c4c(c5c6ccccc6n2c5c31)CNC4=O [Lestaurtinib] (first compound 0.02 µM, partner dose 0.004 µM)",cleaved PARP positive nuclei fraction,501Mel,56.4%
same,cleaved PARP positive nuclei fraction,A101D,60.4%
same,cleaved PARP positive nuclei fraction,A2058,88.1%
same,cleaved PARP positive nuclei fraction,A375,154%
same,cleaved PARP positive nuclei fraction,C32,87.2%
same,cleaved PARP positive nuclei fraction,CBRC008,36.2%
same,cleaved PARP positive nuclei fraction,CBRC014,307%
same,cleaved PARP positive nuclei fraction,CBRC016,68.1%
same,cleaved PARP positive nuclei fraction,CBRC017,101%
"N.N.[Cl][Pt][Cl] [cisplatin] + COCC[n+]1c2c(n(Cc3cnccn3)c1C)C(=O)c1ccccc1C2=O [YM155] (first compound 1.6 µM, partner dose 0.0004 µM)",cleaved PARP positive nuclei fraction,501Mel,67.3%
same,cleaved PARP positive nuclei fraction,A101D,92.6%
same,cleaved PARP positive nuclei fraction,A2058,78.4%
same,cleaved PARP positive nuclei fraction,A375,53.2%
same,cleaved PARP positive nuclei fraction,C32,75.7%
same,cleaved PARP positive nuclei fraction,CBRC008,270%
same,cleaved PARP positive nuclei fraction,CBRC014,91%
same,cleaved PARP positive nuclei fraction,CBRC016,109%
same,cleaved PARP positive nuclei fraction,CBRC017,102%
"N#CC[C@H](C1CCCC1)n1cc(-c2ncnc3[nH]ccc23)cn1 [ruxolitinib] + Cn1cc(C2=C(c3cn(C4CCN(Cc5ccccn5)CC4)c4ccccc34)C(=O)NC2=O)c2ccccc21 [Enzastaurin] (first compound 1 µM, partner dose 0.8 µM)",cleaved PARP positive nuclei fraction,501Mel,106%
same,cleaved PARP positive nuclei fraction,A101D,15.5%
same,cleaved PARP positive nuclei fraction,A2058,112%
same,cleaved PARP positive nuclei fraction,A375,165%
same,cleaved PARP positive nuclei fraction,C32,68.2%
same,cleaved PARP positive nuclei fraction,CBRC008,146%
same,cleaved PARP positive nuclei fraction,CBRC014,104%
same,cleaved PARP positive nuclei fraction,CBRC016,104%
same,cleaved PARP positive nuclei fraction,CBRC017,82.7%
"CNC(=O)c1cc(Oc2ccc(NC(=O)Nc3ccc(Cl)c(C(F)(F)F)c3)cc2)ccn1 [sorafenib] + C[As](C)SC[C@H](NC(=O)CC[C@H](N)C(=O)O)C(=O)NCC(=O)O [Darinaparsin] (first compound 0.4 µM, partner dose 0.4 µM)",cleaved PARP positive nuclei fraction,501Mel,204%
same,cleaved PARP positive nuclei fraction,A101D,97.4%
same,cleaved PARP positive nuclei fraction,A2058,123%
same,cleaved PARP positive nuclei fraction,A375,108%
same,cleaved PARP positive nuclei fraction,C32,176%
same,cleaved PARP positive nuclei fraction,CBRC008,106%
same,cleaved PARP positive nuclei fraction,CBRC014,89.4%
same,cleaved PARP positive nuclei fraction,CBRC016,84.6%
same,cleaved PARP positive nuclei fraction,CBRC017,127%
"C[C@]12O[C@H](C[C@]1(O)CO)n1c3ccccc3c3c4c(c5c6ccccc6n2c5c31)CNC4=O [Lestaurtinib] + Nc1ccn([C@@H]2O[C@H](CO)[C@@H](O)C2(F)F)c(=O)n1 [gemcitabine] (first compound 0.004 µM, partner dose 0.0004 µM)",cleaved PARP positive nuclei fraction,501Mel,106%
same,cleaved PARP positive nuclei fraction,A101D,50.7%
same,cleaved PARP positive nuclei fraction,A2058,27.6%
same,cleaved PARP positive nuclei fraction,A375,130%
same,cleaved PARP positive nuclei fraction,C32,74.5%
same,cleaved PARP positive nuclei fraction,CBRC008,42.3%
same,cleaved PARP positive nuclei fraction,CBRC014,110%
same,cleaved PARP positive nuclei fraction,CBRC016,48.8%
same,cleaved PARP positive nuclei fraction,CBRC017,115%
"Cn1cc(C2=C(c3cn(C4CCN(Cc5ccccn5)CC4)c4ccccc34)C(=O)NC2=O)c2ccccc21 [Enzastaurin] + C[C@]12O[C@H](C[C@]1(O)CO)n1c3ccccc3c3c4c(c5c6ccccc6n2c5c31)CNC4=O [Lestaurtinib] (first compound 0.8 µM, partner dose 0.004 µM)",cleaved PARP positive nuclei fraction,501Mel,68.6%
same,cleaved PARP positive nuclei fraction,A101D,215%
same,cleaved PARP positive nuclei fraction,A2058,111%
same,cleaved PARP positive nuclei fraction,A375,201%
same,cleaved PARP positive nuclei fraction,C32,88.9%
same,cleaved PARP positive nuclei fraction,CBRC008,61.4%
same,cleaved PARP positive nuclei fraction,CBRC014,99.1%
same,cleaved PARP positive nuclei fraction,CBRC016,123%
same,cleaved PARP positive nuclei fraction,CBRC017,123%

# Given tab-delimited: part of the list above.
smiles	measurement	setting	value
C[C@]12O[C@H](C[C@]1(O)CO)n1c3ccccc3c3c4c(c5c6ccccc6n2c5c31)CNC4=O [Lestaurtinib] + CCN(CC)CCNC(=O)c1c(C)[nH]c(/C=C2\C(=O)Nc3ccc(F)cc32)c1C [sunitinib] (first compound 0.004 µM, partner dose 0.4 µM)	cleaved PARP positive nuclei fraction	501Mel	357%
CCCCCCCCc1ccc(CCC(N)(CO)CO)cc1 [fingolimod] + C[As](C)SC[C@H](NC(=O)CC[C@H](N)C(=O)O)C(=O)NCC(=O)O [Darinaparsin] (first compound 2 µM, partner dose 0.4 µM)	cleaved PARP positive nuclei fraction	CBRC017	237%
Cn1cc(C2=C(c3cn(C4CCN(Cc5ccccn5)CC4)c4ccccc34)C(=O)NC2=O)c2ccccc21 [Enzastaurin] + Nc1nc(F)nc2c1ncn2[C@@H]1O[C@H](CO)[C@@H](O)[C@@H]1O [fludarabine] (first compound 0.8 µM, partner dose 0.2 µM)	cleaved PARP positive nuclei fraction	CBRC017	99.8%
CNC(=O)c1cc(Oc2ccc(NC(=O)Nc3ccc(Cl)c(C(F)(F)F)c3)cc2)ccn1 [sorafenib] + C[As](C)SC[C@H](NC(=O)CC[C@H](N)C(=O)O)C(=O)NCC(=O)O [Darinaparsin] (first compound 0.4 µM, partner dose 0.4 µM)	cleaved PARP positive nuclei fraction	A2058	123%
Cn1cc(C2=C(c3cn(C4CCN(Cc5ccccn5)CC4)c4ccccc34)C(=O)NC2=O)c2ccccc21 [Enzastaurin] + C[C@]12O[C@H](C[C@]1(O)CO)n1c3ccccc3c3c4c(c5c6ccccc6n2c5c31)CNC4=O [Lestaurtinib] (first compound 0.8 µM, partner dose 0.004 µM)	cleaved PARP positive nuclei fraction	C32	88.9%

# From the supplement of paper PMC4604168 (melanoma cell lines)
